Measurements taken from PMC4881948, “X-Ray Solution Scattering Study of Four Escherichia coli Enzymes Involved in Stationary-Phase Metabolism” (PLoS ONE, 2016).
No constants are given. Whether binding was seen depends on the method and setting.

Assays:
Assay in all cases: SAXS; mixed samples PPase/FbaB, PPase/GadA, PPase/KduI; data compared with the volume-fraction weighted sum of the data of the single components; both purified
[1] = biological target: T1, 5-keto 4-deoxyuronate isomerase (KduI) from E. coli (E. coli) (UniProt Q46938)
T1 sequence: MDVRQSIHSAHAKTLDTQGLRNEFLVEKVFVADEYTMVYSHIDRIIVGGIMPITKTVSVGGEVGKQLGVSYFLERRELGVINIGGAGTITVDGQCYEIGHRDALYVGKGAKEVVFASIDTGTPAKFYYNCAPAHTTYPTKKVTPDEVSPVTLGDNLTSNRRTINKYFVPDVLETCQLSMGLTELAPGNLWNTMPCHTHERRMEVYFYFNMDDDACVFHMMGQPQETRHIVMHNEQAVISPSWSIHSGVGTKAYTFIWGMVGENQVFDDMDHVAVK

[2] = biological target: T2, Class I fructose-1,6-bisphosphate aldolase (FbaB) from E. coli (E. coli) (UniProt P0A991)
T2 sequence: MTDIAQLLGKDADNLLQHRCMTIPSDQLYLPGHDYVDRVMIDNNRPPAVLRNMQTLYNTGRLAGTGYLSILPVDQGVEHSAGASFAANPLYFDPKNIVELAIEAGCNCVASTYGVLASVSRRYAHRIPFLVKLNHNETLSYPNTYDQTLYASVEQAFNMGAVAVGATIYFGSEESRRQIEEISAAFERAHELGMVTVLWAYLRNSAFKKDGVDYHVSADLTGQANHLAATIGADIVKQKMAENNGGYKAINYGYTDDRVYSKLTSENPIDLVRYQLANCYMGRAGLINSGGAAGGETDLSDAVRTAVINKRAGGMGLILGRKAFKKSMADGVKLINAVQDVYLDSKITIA

[3] = biological target: T3, glutamate decarboxylase (GadA) from E. coli (E. coli) (UniProt P69908)
T3 sequence: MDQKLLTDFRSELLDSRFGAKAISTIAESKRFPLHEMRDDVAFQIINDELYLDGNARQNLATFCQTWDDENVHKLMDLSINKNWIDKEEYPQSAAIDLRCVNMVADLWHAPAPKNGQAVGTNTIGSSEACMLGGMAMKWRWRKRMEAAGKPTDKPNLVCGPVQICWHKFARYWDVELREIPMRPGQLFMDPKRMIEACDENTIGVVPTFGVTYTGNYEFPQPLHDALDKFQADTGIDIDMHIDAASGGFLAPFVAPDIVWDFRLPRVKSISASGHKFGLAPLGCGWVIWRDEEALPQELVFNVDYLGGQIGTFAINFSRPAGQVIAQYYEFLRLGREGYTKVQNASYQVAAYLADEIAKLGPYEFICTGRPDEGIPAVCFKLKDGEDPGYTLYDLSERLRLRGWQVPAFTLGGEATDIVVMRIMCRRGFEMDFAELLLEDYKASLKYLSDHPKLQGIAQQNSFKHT

Measured: binding

B1: inorganic pyrophosphatase (PPase) from E. coli (enzyme)
chain: SLLNVPAGKDLPEDIYVVIEIPANADPIKYEIDKESGALFVDRFMSTAMFYPCNYGYINHTLSLDGDPVDVLVPTPYPLQPGSVIRCRPVGVLKMTDEAGEDAKLVAVPHSKLSKEYDHIKDVNDLPELLKAQIAHFFEHYKDLEKGKWVKVEGWENAEAAKAEIVASFERAKNK
notes: inorganic pyrophosphatase, E. coli; Hexamer in solution by SAXS
no binding: all assays above
